# Test system: MCF-7 cells
# Experiment: MTT assay, MCF-7 growth inhibition
# Format: cell-based
# Settings: Homo sapiens, MCF7, 24 h, read-out: EC50, MCF-7 cell viability
# Protocol: The cell lines MCF-7 and A431 were cultured in Dulbecco’s Modified Eagle’s Medium (DMEM, Gibco, USA), while HL-60, H1299, and A549 cells were maintained in RPMI-1640 medium (Gibco, USA). Both mediums were enriched with 10% fetal bovine serum and 1% penicillin/streptomycin. […] All cell cultures were incubated at 37°C in an atmosphere containing 5% CO2.
# Cells in the exponential growth phase were seeded into 96-well plates and allowed to adhere overnight. Subsequently, they were treated in triplicate with various concentrations of the compounds (0, 1.56, 3.13, 6.25, 12.5, 25, 50, 100 µM), […]. After 24 h, 20 µL of Methyl-thiazolyldiphenyl-tetrazolium bromide (MTT, 5 mg/mL, Thermo Fisher Scientific) was added to each well and incubated for a minimum of 4 h. Following the incubation, the medium containing the compounds and MTT was removed from each well, and 200 µL of dimethyl sulfoxide (DMSO) was added. The plates were then shaken for 10 min at 37°C to dissolve the formazan crystals. The absorbance was measured using a microplate reader (BioTek Synergy 4) at a wavelength of 490 nm.
# All experiments were repeated at least three times, and the data are presented as mean ± standard deviation (SD). The statistical analyses were performed using Origin. […] Difference between two groups were analyzed by Student’s t test (two-sided) and significance was set at p < 0.05. […]
structure (smiles),measurement,value
"CN[C@@H]1C[C@H]2O[C@@](C)([C@@H]1OC)n1c3ccccc3c3c4c(c5c6ccccc6n2c5c31)C(=O)NC4 [Staurosporine, reference compound]",EC50,500 ± 200 nM

# Source: publication PMC11094307, “Marine-derived EGFR inhibitors: novel compounds targeting breast cancer growth and drug resistance” (Frontiers in Pharmacology, 2024)
